Results taken from patent US20190134039A1, “ANTIVIRAL JAK INHIBITORS USEFUL IN TREATING OR PREVENTING RETROVIRAL AND OTHER VIRAL INFECTIONS” (EMORY UNIVERSITY, priority 2011, published 2019).
Like-named read-outs stand apart in the source and are kept apart here.

Key:
HIV-1LAI = test: microbe, parasite or virus in culture; conditions: Human immunodeficiency virus 1, PBMC, read-out: Anti-HIV-1 EC50 in acutely infected PBM cells
From the text: PBM cells were isolated as follows: Lymphocytes were isolated from buffy coats derived from healthy donors obtained from Life South Laboratories (Dunwoody, Ga.). Activated lymphocytes were maintained for 72 hrs in medium that was supplemented with […] phytohemagglutinin (PHA) (Cape Cod associates, East Falmouth, Mass.). Media was comprised of RPMI media supplemented with 20% fetal calf serum, 1% penicillin/streptomyocin and 2% L-glutamine (Sigma Aldrich, San Jose, Calif.).
PBM cell infections: Testing was performed in duplicate with at least 3 independent assays. Cells were incubated in RPMI medium (HyClone, Logan, Utah) containing HR-IL2 (26.5 units/ml) and 20% fetal calf serum. Infections were performed by adding HIV-1LA1 followed by a further incubation at 37° C., 5% CO2, 1 hr prior to addition of drugs. Assays were performed in 24 well plates (BD Biosciences, Franklin Lakes, N.J.). One ml of supernatant was collected after 5 days in culture and then centrifuged at 12,000 rpm for 2 hr at 4° C. in a Jouan Br43i (Thermo Electron Corp., Marietta, Ohio). The product of the RT assay was quantified using a Packard harvester and direct beta counter and the data were analyzed as previously described (Schinazi et al, 1990).

HIV-1BaL = test: microbe, parasite or virus in culture; conditions: Human immunodeficiency virus 1, Macrophage, read-out: Anti-HIV-1 EC50 in acutely infected MΦ
Procedure: Macrophages were isolated as follows: Monocytes were isolated from buffy coats of HIV-1 negative, HBV/HCV-negative donors with density gradient centrifugation coupled with enrichment for CD14+ monocytes with Rosette Sep antibody cocktail (Stem Cell Technologies, Vancouver, British Columbia). Cells were seeded at a concentration of 1.0×10^6 cells/well for 1 hr at 37° C. and 5% CO2 to confer plastic adherence prior to repeated washes with 1×PBS. Macrophages were maintained in medium containing 100 U/ml macrophage colony-stimulating factor (m-CSF, R&D Systems, Minneapolis, Minn.), supplemented with 20% fetal calf serum (Atlanta Biologicals, Lawrenceville, Ga.) and 1% penicillin/streptomyocin (Invitrogen, Carlsbad, Calif.) for 7 days (37° C., 5% CO2) prior to testing.
Macrophage infections: Macrophages were cultured as described above for 7 days. […] 4 hrs after infection, virus was removed and drug-containing medium was returned to the cultures. Supernatants were collected on day 7 post-infection and HIV-1 p24 was quantified via ELISA (Zeptometrix Corporation, Buffalo, N.Y.). EC50 analysis was performed using CalcuSyn software (BioSoft Corporation, Cambridge, UK).

PHA + IL-2 PBM cells = test: cells; conditions: Homo sapiens, PBMC, read-out: IC50 in PHA + IL-2 PBM cells *MTT Assay
PHA stimulated PBM cells = test: cells; conditions: Homo sapiens, PBMC, read-out: IC50 in PHA stimulated PBM cells *MTT Assay
Mφ = test: cells; conditions: Homo sapiens, read-out: IC50 in Mφ *MTT Assay
CEM cells = test: cells; conditions: Homo sapiens, CCRF-CEM, read-out: IC50 in CEM cells *MTT Assay
Vero cells = test: cells; conditions: Chlorocebus sabaeus, read-out: IC50 in Vero cells *MTT Assay
[1] = tested on: acute infection in rhesus macaque lymphocytes; test: cells; conditions: Macaca mulatta, Lymphocyte, read-out: Acute infection in rhesus macaque lymphocytes EC50
From the text: (§1) The data (Shown in Table 5 below) are mean and standard deviations from at least three independent experiments.

[2] = tested on: acute infection in rhesus macaque macrophages; test: cells; conditions: read-out: Acute infection in rhesus macaque macrophages EC50
From the text: as §1

wild-type HIV-1xxLAI = test: Antiviral potency in primary human lymphocytes, wild type; format: cell-based; conditions: Human immunodeficiency virus 1, Lymphocyte
HIV-1 containing M184V = test: microbe, parasite or virus in culture; format: cell-based
HIV-1 containing K65R = test: microbe, parasite or virus in culture; format: cell-based
HIV-1 containing L74V = test: microbe, parasite or virus in culture; format: cell-based
[3] = tested on: HIV-1 containing A62V/V75I/F77L/F116Y/Q151M; test: microbe, parasite or virus in culture; format: cell-based
[4] = tested on: HIV-1 containing 4xAZT (D67N/K70R/T215Y/K219Q); test: microbe, parasite or virus in culture; format: cell-based
PBM cells = test: cells; conditions: Homo sapiens, PBMC, read-out: IC50 in PBM cells *Propidium Iodide assay
pSTAT1 = test: cells
pSTAT3 = test: cells; conditions: read-out: EC50 pSTAT3
pSTAT5 = test: cells
HIV-2 = test: microbe, parasite or virus in culture; conditions: Human immunodeficiency virus 2, PBMC, read-out: Anti-HIV-2 EC50 in acutely infected PBM cells
[5] = Human immunodeficiency virus 1, Lymphocyte

Work on C[C@@H]1CCN(C(=O)CC#N)C[C@@H]1N(C)c1ncnc2[nH]ccc12 [Tofacitinib, 3-{(3R,4R)-4 methyl-3-[methyl-(7H-pyrrolo[2,3-d]pyrimidin-4-yl)-amino]-piperidin-1-yl}-3-oxo-propionitrile] yielded an EC50 (HIV-1LAI) of 800 ± 300 nM, an EC50 (HIV-1BaL) of 200 ± 80 nM and a CC50 (PHA + IL-2 PBM cells) of 1300 ± 900 nM. It also gave an IC50 (PHA stimulated PBM cells) of 6300 ± 1800 nM, an IC50 (Mφ) of 49200 nM and an IC50 (CEM cells) greater than 100000 nM. It also gave an IC50 (Vero cells) greater than 100000 nM, an EC50 [1] of 300 ± 100 nM and an EC50 ([2]; Macaca mulatta, Macrophage) of roughly 400 nM. For the same compound, the EC50 [2] was 300 ± 200 nM, the EC50 (wild-type HIV-1xxLAI) was 2600 ± 1300 nM and the EC50 (HIV-1 containing M184V; [5]) was 1600 ± 700 nM. For the same compound, the “FI50 (ratio of EC50 against mutant virus:EC50 against wild-type xxLAI)” value (HIV-1 containing M184V; M184V) was 0.6, the “FI90 (ratio of EC90 against mutant virus:EC90 against wild-type xxLAI)” value (HIV-1 containing M184V; M184V) was 1.0 and the EC50 (HIV-1 containing K65R; [5]) was 1800 ± 800 nM. The “FI50 (ratio of EC50 against mutant virus:EC50 against wild-type xxLAI)” value (HIV-1 containing K65R; K65R) was 0.7, the “FI90 (ratio of EC90 against mutant virus:EC90 against wild-type xxLAI)” value (HIV-1 containing K65R; K65R) was 2.9 and the EC50 (HIV-1 containing L74V; [5]) was 900 ± 1000 nM. The “FI50 (ratio of EC50 against mutant virus:EC50 against wild-type xxLAI)” value (HIV-1 containing L74V; L74V) was 0.4, the “FI90 (ratio of EC90 against mutant virus:EC90 against wild-type xxLAI)” value (HIV-1 containing L74V; L74V) was 1.7 and the “FI50 (ratio of EC50 against mutant virus:EC50 against wild-type xxLAI)” value ([3]; A62V/V75I/F77L/F116Y/Q151M) was 0.1. For the same compound, the “FI90 (ratio of EC90 against mutant virus:EC90 against wild-type xxLAI)” value ([3]; A62V/V75I/F77L/F116Y/Q151M) was 0.3, the EC50 [3, 5] was 200 ± 200 nM and the “FI50 (ratio of EC50 against mutant virus:EC50 against wild-type xxLAI)” value ([4]; 4xAZT (D67N/K70R/T215Y/K219Q)) was 0.1. For the same compound, the “FI90 (ratio of EC90 against mutant virus:EC90 against wild-type xxLAI)” value ([4]; 4xAZT (D67N/K70R/T215Y/K219Q)) was 0.61, the EC50 [4, 5] was 300 ± 200 nM and the IC50 (PBM cells) was greater than 50000 nM. The EC50 (pSTAT1; read-out: EC50 pSTAT1) was less than 10 nM, the EC90 (pSTAT1; read-out: EC90 pSTAT1) was 10 nM and the EC50 (pSTAT3) was 20 nM. The EC50 (pSTAT5; read-out: EC50 pSTAT5) was less than 10 nM, the EC90 (pSTAT5; read-out: EC90 pSTAT5) was 10 nM and the EC50 (HIV-2) was 70 ± 6 nM.
